Assay results reported in PubChem BioAssay AID1259415 (National Center for Advancing Translational Sciences (NCATS), 2018).
About 18,000 (4.4%) of roughly 410,000 compounds were called active. Inconclusive means that the source gave no clear call. Such entries were picked first, then a sample of the others. Cut-off read from the data, not from the text of the source: active = activity change below about -60%; inconclusive = no clear call, values can overlap the other calls; inactive = above about -39%.

assay: qHTS Assay for inhibitors of the human cytomegalovirus (HCMV); settings: HFF cells, HCMV-luciferase reporter, 72 h; at 57.5 µM; stronger effect = lower value
In short: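 Cell-based, HFFs, 1000 cells/well, 16 h 37C; cpds in DMSO + HCMV-luc, MOI 1 PFU/cell; 72 h 37C; OneGlo luminescence after 5 min RT; norm. to buffer vs Salinomycin 10uM.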
% is set by controls: 0 for no effect and ±100 for the full control effect.

Row | Compound | activity change, negative = inhibition
1 | COc1ccc(NC(=O)CCCSc2ccccc2)cc1S(N)(=O)=O | inconclusive: -50.8%
2 | Cc1cccc(NC(=S)N2CCN(C(=O)C3CCCO3)CC2)c1 (stereo not given) | inconclusive: -47.5%
3 | COc1ccc(C(O)(CCN2CCCCC2)C2CCCCC2)cc1 (stereo not given) | inconclusive: -47.4%
4 | Cc1ccccc1NC(=O)c1c(C)[nH]c(=S)c(C#N)c1-c1ccco1 | inconclusive: -47.1%
5 | COC(=O)c1ccc(-c2nc(-c3ccc(Br)o3)no2)cc1 | inactive: 7.48%
6 | CC(C)NC(=S)NN=C1CCCCCCCCCCC1 | inconclusive: -43.5%
7 | COc1ccc(S(=O)(=O)NCCc2sc3nc(-c4ccc(C)cc4)nn3c2C)cc1C | active: -93.5%
8 | COC(=O)c1ccc(NC(=O)C(=O)NCC(c2cccnc2)N2CCN(c3ccccc3)CC2)cc1 (stereo not given) | inconclusive: 0%
9 | O=C(NCc1ccc(F)cc1)c1cc2cccc3c2n1CCS3 | active: -69.7%
10 | O=C(NC(c1ccc(Cl)cc1)c1cccnc1)C1CCN(CCOc2ccc(Cl)cc2Cl)CC1 (stereo not given) | inactive: 0.989%
11 | COc1ccc(CCN(C)CCC(=O)Nc2ccc(C)cc2)cc1OC | inconclusive: -52.3%
12 | Cn1ccc2cc(NC(=O)Nc3cccnc3)ccc21 | active: -100%
13 | O=C(CSc1nnc(-c2cccc(F)c2)o1)N1CCCC1 | inactive: -35.3%
14 | COc1ccc(Cl)cc1NC(=S)NN1CCOCC1 | inconclusive: -57%
15 | CCc1ccc(NC(=O)C2=C(C)C(=O)OC23CCCCC3)cc1 | inactive: -37%
16 | CC12CC(NC(=O)N1c1cccc(C(=O)N3CCN(c4ccccc4)CC3)c1)c1ccccc1O2 (stereo not given) | inconclusive: -41.7%
17 | COc1ccc(-c2cc(C(=O)Nc3ccc(S(N)(=O)=O)cc3)c3ccccc3n2)cc1OC | inactive: 3.05%
18 | CCCCCOc1ccc(C(=O)CCC(=O)NNC(=O)c2ccncc2)cc1 | inactive: -32%
19 | Cc1ccc(C(CNC(=O)c2ccc(Br)o2)N2CCN(C)CC2)cc1 (stereo not given) | inconclusive: -44%
20 | COc1ccc(-c2nnc3sc(CCN4C(=O)c5ccccc5C4=O)nn23)cc1 | inactive: 27.3%
21 | CN(Cc1cc(=O)n2ccsc2n1)C1CCCCC1 | inconclusive: -41.6%
22 | COc1ccc(OC)c(NC(=O)Cn2c(=O)n(Cc3ccco3)c(=O)c3cc(OC)c(OC)cc32)c1 | inactive: 2.43%
23 | Cc1ccc(C)c(NC(=O)C(Cc2ccccc2)n2cccc2)c1 (stereo not given) | inconclusive: -52.1%
24 | CC(NC(=S)Nc1ccccc1)C1COc2ccccc2O1 (stereo not given) | inconclusive: -58%
25 | COc1ccc(N2CCN(C(=O)COc3ccccc3C#N)CC2)cc1 | inactive: -7.48%
26 | NC(=S)N/N=C/c1coc2ccccc2c1=O | inconclusive: -52%
27 | O=C(c1ccc(Cl)cc1)c1oc2ccccc2c1CS(=O)c1ccc(Cl)cc1 (stereo not given) | inconclusive: -46.3%
28 | CCOc1ccccc1CNC(=O)CCC(=O)N1CCSc2ccccc21 | active: -74.8%

Row | Compound | activity change, negative = inhibition
29 | CN(C)CCCN(C(=O)c1ccc(S(=O)(=O)N2CCCCCC2)cc1)c1nc2c(F)cc(F)cc2s1 | inactive: -0.956%
30 | CCNS(=O)(=O)c1ccc(CCC(=O)Nc2cc(Cl)ccc2Oc2ccccc2)cc1 | inconclusive: -43.2%
31 | Cc1cc(NC(=O)c2cc([N+](=O)[O-])cc([N+](=O)[O-])c2)n(-c2ccccc2)n1 | inconclusive: -56.1%
32 | O=C(COc1ccc2c3c(c(=O)oc2c1)CCCC3)NCc1cccnc1 | inconclusive: -41.2%
33 | CCOC(=O)N1CCC(N2Cc3cccc(C(=O)Nc4ccc(CC)cc4)c3C2=O)CC1 | inactive: 65.2%
34 | O=C(O)c1cccc(NS(=O)(=O)c2ccc(S(=O)(=O)N3CCOCC3)cc2)c1 | active: -76.3%
35 | Cc1ccccc1C(=O)N1CCN(c2ncnc3c2cnn3-c2ccccc2)CC1 | inconclusive: -55.3%
36 | O=C(COCC(=O)Nc1cccc(C(F)(F)F)c1)Nc1cccc(C(F)(F)F)c1 | inconclusive: -52.9%
37 | CC(=O)N1c2ccc(S(=O)(=O)N3CCCC3)cc2CC1C(=O)NCc1ccc(OC(C)C)cc1 (stereo not given) | inconclusive: -41.6%
38 | COc1ccccc1-c1cnc2c(c1)C(=O)N([C@@H](C)CO)C[C@@H](C)[C@H](CN(C)C(=O)c1cccnc1)O2 | inactive: 3.42%
39 | CN(C)CC[n+]1ccc(C(=O)c2ccccc2)cc1 | inactive: 29.6%
40 | CCOC(=O)c1c(C)oc2ccc(OC(=O)COc3c(F)c(F)c(F)c(F)c3F)cc12 | inconclusive: -44.6%
41 | COc1ccc(Nc2nnc(-c3ccc(C)c(S(=O)(=O)NCc4nc5ccccc5[nH]4)c3)c3ccccc23)cc1 | active: -95.3%
42 | O=C(CCCn1nnc(-c2cccnc2)n1)c1ccc(F)cc1 | inconclusive: -51.7%
43 | COc1cc(/C=C2/C(=O)NN(c3ccc(Cl)c(Cl)c3)C2=O)cc([N+](=O)[O-])c1O | inconclusive: -60%
44 | CCC1CCCCN1C(=O)CSc1nnc(-c2c[nH]c3ccccc23)o1 (stereo not given) | inactive: -30.8%
45 | Cc1ccc(CNC(=O)Nc2ccc(C)cc2)cc1 | inconclusive: -57.2%
46 | COc1ccccc1CNc1nc(NCc2ccc3occc3c2)c2sccc2n1 | inconclusive: -45.4%
47 | O=C1OCCC1Sc1nnc(-c2ccc(F)cc2)n1Cc1ccccc1 (stereo not given) | inactive: -34.4%
48 | O=C(c1ccc(Cl)cc1)N1C2C=CC(C2)C1(C(F)(F)F)C(F)(F)F (stereo not given) | inconclusive: -40.7%
49 | COc1ccc(S(=O)(=O)N2CCN(CC(=O)N3CCc4ccccc4C3)CC2)cc1OC | inactive: -11.8%
50 | COC(=O)c1ccc(CS(=O)(=O)c2ccc(C)cc2)o1 | inactive: 7.07%
51 | CCN(CC)CCNc1cc(C)nc2c1C(=O)C(=O)C=C2N1CCCCC1 | active: -98%
52 | CCn1nc(C)c(CN2CCCC(C(=O)c3cccc(OC(C)C)c3)C2)c1C (stereo not given) | inconclusive: -59.5%
53 | Cc1cc(C(=O)OCC(=O)Nc2cccc(S(N)(=O)=O)c2)c2ccccc2n1 | inconclusive: -46.5%
54 | CCCCOC(=O)c1cc(=O)[nH]c2ccc(C)cc12 | inconclusive: -53%
55 | Cc1ccc(N(CC(=O)NCc2ccccc2Cl)S(=O)(=O)c2c(C)noc2C)cc1 | inconclusive: -41.7%

3 of these compounds in another layout:
Row	Compound	activity change, negative = inhibition
40	CCOC(=O)c1c(C)oc2ccc(OC(=O)COc3c(F)c(F)c(F)c(F)c3F)cc12	inconclusive: -44.6%
41	COc1ccc(Nc2nnc(-c3ccc(C)c(S(=O)(=O)NCc4nc5ccccc5[nH]4)c3)c3ccccc23)cc1	active: -95.3%
42	O=C(CCCn1nnc(-c2cccnc2)n1)c1ccc(F)cc1	inconclusive: -51.7%
